This passage reports binding results from PMC11997338.

No constants are given. Whether binding was seen depends on the method and setting. In cells and extracts the contact can be indirect. Binding calls can cover weak binding; strength is not graded here. Sequences can lack the tags named with a protein.

This assay addresses T1, hemagglutinin (HA)-tagged endoglin (ENG) (UniProt P17813).
T1 sequence: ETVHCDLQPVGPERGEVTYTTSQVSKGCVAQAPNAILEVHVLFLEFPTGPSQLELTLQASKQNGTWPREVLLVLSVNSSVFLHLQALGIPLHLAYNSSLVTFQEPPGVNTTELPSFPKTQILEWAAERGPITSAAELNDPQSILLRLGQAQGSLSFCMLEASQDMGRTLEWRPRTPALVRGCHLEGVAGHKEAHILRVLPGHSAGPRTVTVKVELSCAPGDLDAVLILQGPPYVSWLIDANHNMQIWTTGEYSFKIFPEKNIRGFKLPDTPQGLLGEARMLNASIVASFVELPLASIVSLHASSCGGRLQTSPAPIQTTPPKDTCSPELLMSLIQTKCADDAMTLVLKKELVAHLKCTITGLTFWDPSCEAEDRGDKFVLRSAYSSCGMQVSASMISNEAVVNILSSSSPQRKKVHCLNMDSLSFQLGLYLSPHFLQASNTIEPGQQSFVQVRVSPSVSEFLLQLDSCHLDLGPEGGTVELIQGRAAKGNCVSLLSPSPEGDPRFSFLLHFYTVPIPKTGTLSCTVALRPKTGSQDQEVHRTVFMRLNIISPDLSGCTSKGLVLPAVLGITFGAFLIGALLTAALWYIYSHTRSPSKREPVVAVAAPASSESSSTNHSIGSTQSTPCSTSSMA
The assay can be described thus: proximity ligation; HEK293T cells with ENG-HA overexpression incubated with recombinant His-tagged DSP protein (0.5 μg/ml) at 37 °C for 1 h, fixed; anti-6X His and anti-ENG antibodies; Duolink in situ PLA; only the binder purified.
In the case of “recombinant DSP_(aa34–50)-His protein (domain or fragment)”, the binding entry was “binds”.
In the case of recombinant DSP_(Δ34–50)-His protein it was “no binding (tested: 0.5 μg/ml)”; in that of recombinant full-length DSP-His protein, “binds”.
